# Source: the supplement of paper PMC10032668
# Sequences of proteins named here, by UniProt entry; tags and fusion partners are left off.
# AP2A2, O94973, UniProt O94973, whole entry: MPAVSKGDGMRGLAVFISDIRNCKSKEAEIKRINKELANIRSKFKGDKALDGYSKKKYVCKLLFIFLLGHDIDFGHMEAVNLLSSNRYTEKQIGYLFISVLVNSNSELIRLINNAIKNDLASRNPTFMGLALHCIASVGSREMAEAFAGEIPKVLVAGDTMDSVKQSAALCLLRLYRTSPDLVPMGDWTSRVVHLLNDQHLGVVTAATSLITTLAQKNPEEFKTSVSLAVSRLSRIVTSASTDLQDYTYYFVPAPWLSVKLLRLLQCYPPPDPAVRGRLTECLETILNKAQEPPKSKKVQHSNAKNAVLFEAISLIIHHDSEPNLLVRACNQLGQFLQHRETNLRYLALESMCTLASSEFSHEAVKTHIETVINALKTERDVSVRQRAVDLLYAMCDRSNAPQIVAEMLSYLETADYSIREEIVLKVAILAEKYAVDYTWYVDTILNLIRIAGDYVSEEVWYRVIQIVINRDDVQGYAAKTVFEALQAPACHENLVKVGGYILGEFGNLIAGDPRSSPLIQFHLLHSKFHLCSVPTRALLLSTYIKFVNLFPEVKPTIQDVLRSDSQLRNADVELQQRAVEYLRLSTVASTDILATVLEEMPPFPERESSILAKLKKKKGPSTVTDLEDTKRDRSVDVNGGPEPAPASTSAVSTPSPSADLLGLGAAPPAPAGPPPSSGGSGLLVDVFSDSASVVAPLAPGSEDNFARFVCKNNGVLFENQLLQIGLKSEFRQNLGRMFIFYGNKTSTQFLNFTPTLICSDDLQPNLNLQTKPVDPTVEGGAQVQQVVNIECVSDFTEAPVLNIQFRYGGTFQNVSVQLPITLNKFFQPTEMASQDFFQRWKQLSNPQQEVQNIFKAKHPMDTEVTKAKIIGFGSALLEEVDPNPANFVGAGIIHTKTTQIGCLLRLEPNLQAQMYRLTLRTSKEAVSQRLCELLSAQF
# EP300, Q09472, UniProt Q09472, whole entry: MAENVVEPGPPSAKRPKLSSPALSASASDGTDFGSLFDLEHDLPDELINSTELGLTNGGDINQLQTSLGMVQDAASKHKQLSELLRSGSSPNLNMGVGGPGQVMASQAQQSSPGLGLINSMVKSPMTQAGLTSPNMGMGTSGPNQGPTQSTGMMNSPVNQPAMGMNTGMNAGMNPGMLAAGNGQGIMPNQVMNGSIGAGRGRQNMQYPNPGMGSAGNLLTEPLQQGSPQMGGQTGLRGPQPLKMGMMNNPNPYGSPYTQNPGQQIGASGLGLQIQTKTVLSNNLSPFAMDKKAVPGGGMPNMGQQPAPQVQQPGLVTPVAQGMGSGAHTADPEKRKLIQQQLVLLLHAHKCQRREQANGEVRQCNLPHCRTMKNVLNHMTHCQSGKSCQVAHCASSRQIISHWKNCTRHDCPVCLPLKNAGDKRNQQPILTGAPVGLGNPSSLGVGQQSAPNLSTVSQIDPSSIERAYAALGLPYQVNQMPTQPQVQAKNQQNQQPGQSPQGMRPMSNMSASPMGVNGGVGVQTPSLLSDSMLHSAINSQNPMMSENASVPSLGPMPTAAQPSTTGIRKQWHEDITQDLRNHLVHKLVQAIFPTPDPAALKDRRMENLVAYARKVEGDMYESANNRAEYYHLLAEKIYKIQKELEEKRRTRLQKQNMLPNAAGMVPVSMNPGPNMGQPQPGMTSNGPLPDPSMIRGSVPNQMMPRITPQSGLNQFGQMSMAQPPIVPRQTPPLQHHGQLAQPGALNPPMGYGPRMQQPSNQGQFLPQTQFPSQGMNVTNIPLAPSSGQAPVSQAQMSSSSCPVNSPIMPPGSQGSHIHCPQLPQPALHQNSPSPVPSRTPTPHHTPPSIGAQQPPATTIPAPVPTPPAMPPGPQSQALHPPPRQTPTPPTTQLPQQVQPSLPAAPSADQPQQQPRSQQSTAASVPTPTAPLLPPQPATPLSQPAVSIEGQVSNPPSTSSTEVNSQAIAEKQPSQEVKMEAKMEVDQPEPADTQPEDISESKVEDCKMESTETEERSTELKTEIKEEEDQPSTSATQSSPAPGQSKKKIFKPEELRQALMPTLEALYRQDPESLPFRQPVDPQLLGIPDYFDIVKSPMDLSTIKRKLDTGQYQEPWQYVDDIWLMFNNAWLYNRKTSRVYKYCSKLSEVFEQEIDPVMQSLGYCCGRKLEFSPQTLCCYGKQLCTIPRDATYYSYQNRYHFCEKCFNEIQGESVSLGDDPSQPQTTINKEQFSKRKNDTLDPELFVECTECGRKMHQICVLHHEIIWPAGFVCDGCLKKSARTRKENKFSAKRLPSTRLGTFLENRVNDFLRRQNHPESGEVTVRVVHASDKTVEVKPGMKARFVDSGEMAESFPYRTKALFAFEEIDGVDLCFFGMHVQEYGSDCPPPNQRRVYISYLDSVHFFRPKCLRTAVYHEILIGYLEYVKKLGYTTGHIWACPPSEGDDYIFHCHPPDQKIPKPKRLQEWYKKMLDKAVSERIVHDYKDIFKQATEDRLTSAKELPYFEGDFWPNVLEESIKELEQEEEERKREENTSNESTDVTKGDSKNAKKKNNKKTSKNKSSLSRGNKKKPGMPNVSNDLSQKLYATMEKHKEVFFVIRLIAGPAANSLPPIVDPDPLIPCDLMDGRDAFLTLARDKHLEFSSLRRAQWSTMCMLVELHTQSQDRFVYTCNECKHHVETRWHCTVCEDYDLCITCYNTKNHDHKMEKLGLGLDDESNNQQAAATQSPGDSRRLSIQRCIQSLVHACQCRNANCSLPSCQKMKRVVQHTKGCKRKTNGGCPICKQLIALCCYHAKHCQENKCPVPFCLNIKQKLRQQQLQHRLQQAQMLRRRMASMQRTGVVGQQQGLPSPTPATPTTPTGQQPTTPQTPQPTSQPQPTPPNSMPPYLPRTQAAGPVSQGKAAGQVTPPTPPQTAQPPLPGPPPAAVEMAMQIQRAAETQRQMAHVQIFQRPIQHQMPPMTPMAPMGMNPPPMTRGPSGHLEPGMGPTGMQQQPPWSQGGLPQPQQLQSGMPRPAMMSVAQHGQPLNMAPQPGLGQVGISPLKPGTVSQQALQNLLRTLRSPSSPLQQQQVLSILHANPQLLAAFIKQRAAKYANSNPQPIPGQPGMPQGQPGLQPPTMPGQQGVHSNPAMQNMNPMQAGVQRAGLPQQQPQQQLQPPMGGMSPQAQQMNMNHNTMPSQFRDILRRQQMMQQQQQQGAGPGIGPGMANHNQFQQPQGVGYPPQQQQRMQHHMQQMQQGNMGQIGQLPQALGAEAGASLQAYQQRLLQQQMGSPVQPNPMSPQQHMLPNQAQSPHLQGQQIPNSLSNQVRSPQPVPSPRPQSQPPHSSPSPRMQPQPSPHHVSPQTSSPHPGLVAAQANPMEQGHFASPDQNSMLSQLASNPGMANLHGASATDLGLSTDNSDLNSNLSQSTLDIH
# YY1, P25490, UniProt P25490, whole entry: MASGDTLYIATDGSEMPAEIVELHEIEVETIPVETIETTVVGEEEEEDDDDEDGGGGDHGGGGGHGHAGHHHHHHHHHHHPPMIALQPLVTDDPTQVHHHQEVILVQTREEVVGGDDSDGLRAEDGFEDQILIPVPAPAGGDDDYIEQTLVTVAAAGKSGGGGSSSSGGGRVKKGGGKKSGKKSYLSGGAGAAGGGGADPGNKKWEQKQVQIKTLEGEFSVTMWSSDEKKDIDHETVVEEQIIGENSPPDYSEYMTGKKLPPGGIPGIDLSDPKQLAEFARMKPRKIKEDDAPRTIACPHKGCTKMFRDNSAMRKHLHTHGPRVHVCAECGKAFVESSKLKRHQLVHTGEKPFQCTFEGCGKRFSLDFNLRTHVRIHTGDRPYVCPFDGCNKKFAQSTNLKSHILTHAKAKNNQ
# ERVK-16, P61578, UniProt P61578, whole entry: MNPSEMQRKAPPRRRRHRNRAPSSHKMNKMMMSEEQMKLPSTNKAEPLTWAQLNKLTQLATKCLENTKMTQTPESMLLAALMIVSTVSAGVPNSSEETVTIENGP
# LANCL1, O43813, UniProt O43813, whole entry: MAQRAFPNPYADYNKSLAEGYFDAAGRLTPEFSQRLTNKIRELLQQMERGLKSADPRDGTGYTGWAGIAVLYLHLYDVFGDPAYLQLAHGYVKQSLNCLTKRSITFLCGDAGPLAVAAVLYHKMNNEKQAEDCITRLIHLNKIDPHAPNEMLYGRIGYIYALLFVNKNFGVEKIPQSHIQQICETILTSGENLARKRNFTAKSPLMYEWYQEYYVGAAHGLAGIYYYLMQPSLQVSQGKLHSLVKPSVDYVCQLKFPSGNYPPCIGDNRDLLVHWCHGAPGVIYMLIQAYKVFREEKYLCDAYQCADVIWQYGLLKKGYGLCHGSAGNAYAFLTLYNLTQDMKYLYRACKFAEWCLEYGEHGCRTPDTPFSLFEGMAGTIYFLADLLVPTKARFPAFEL
# The list shows a part of the results. The list holds hits alone, and they repeat only in part.
# How the values were obtained:
# Assay in all cases: PRISMA enrichment of interactor (LFQ) in peptide spot vs all other peptide spots (log2 fold change); higher = stronger / more specific binding of the interactor to the peptide
# [1] = molecular target: AP2A2, O94973
# Method: (§1)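 PRISMA: 15-aa overlapping tiles (offset 8 aa) of 60 microproteins, plus SOS1/GLUT1 control peptides, were spot-synthesized on cellulose membranes in triplicate. Membranes were incubated with benzonase-treated HEK293T lysate, and bound proteins were identified by LC-MS/MS with LFQ. Enrichment is the log2 fold change of each protein in one spot versus all other spots. Only interactors passing the significance cutoff are listed.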
# [2] = molecular target: C19orf47, Q8N9M1
# Method: as §1
# [3] = molecular target: CHAF1B, Q13112
# Method: as §1
# [4] = molecular target: EP300, Q09472
# Method: as §1
# [5] = molecular target: FANCI, Q9NVI1
# Method: as §1
# [6] = molecular target: GSTP1, P09211
# Method: as §1
# [7] = molecular target: ISYNA1, Q9NPH2
# Method: as §1
# [8] = molecular target: MRPL15, Q9P015
# Method: as §1
# [9] = molecular target: MRTO4, Q9UKD2
# Method: as §1
# [10] = molecular target: POLR2C, P19387
# Method: as §1
# [11] = molecular target: RRP12, Q5JTH9
# Method: as §1
# [12] = molecular target: SCFD1, Q8WVM8
# Method: as §1
# [13] = molecular target: SNRPA1, P09661
# Method: as §1
# [14] = molecular target: SPCS2, Q15005
# Method: as §1
# [15] = molecular target: SPTY2D1, Q68D10
# Method: as §1
# [16] = molecular target: SRRT, Q9BXP5
# Method: as §1
# [17] = molecular target: SRSF10, O75494
# Method: as §1
# [18] = molecular target: TRRAP, Q9Y4A5
# Method: as §1
# [19] = molecular target: YY1, P25490
# Method: as §1
# [20] = molecular target: AP2B1, P63010
# Method: as §1
# [21] = molecular target: C19orf53, Q9UNZ5
# Method: as §1
# [22] = molecular target: KIF22, Q14807
# Method: as §1
# [23] = molecular target: MUC19, Q7Z5P9
# Method: as §1
# [24] = molecular target: AP2S1, P53680
# Method: as §1
# [25] = molecular target: DHRS4, Q9BTZ2
# Method: as §1
# [26] = molecular target: NXF1, Q9UBU9
# Method: as §1
# [27] = molecular target: POLDIP2, Q9Y2S7
# Method: as §1
# [28] = molecular target: AP2A1, O95782
# Method: as §1
# [29] = molecular target: ERCC6L2, Q5T890
# Method: as §1
# [30] = molecular target: ERVK-16, P61578
# Method: as §1
# [31] = molecular target: LANCL1, O43813
# Method: as §1
# [32] = molecular target: RAB11FIP1, Q6WKZ4
# Method: as §1
# [33] = molecular target: pk
# Method: as §1
binder,measurement,setting,value
GIQLQQLRAFHVTPG [EBAG9],PRISMA enrichment of interactor (log2),[1],5.82
same,PRISMA enrichment of interactor (log2),[2],4.7
same,PRISMA enrichment of interactor (log2),[3],4.11
same,PRISMA enrichment of interactor (log2),[4],5.22
same,PRISMA enrichment of interactor (log2),[5],6.52
same,PRISMA enrichment of interactor (log2),[6],8.17
same,PRISMA enrichment of interactor (log2),[7],4.41
same,PRISMA enrichment of interactor (log2),[8],5.46
same,PRISMA enrichment of interactor (log2),[9],4.38
same,PRISMA enrichment of interactor (log2),[10],4.43
same,PRISMA enrichment of interactor (log2),[11],5.42
same,PRISMA enrichment of interactor (log2),[12],6.47
same,PRISMA enrichment of interactor (log2),[13],9.66
same,PRISMA enrichment of interactor (log2),[14],5.1
same,PRISMA enrichment of interactor (log2),[15],5.63
same,PRISMA enrichment of interactor (log2),[16],8.2
same,PRISMA enrichment of interactor (log2),[17],8.68
same,PRISMA enrichment of interactor (log2),[18],5.03
same,PRISMA enrichment of interactor (log2),[19],4.2
DTEQTGHLCNHMEVC [RP11-620J15.3],PRISMA enrichment of interactor (log2),[20],5.04
same,PRISMA enrichment of interactor (log2),[21],6.73
same,PRISMA enrichment of interactor (log2),[22],5.1
same,PRISMA enrichment of interactor (log2),[23],8.47
TFSTFSFNCHNSEVD [DANCR],PRISMA enrichment of interactor (log2),[1],4.68
same,PRISMA enrichment of interactor (log2),[24],4.6
same,PRISMA enrichment of interactor (log2),[25],4.68
same,PRISMA enrichment of interactor (log2),[26],5.15
same,PRISMA enrichment of interactor (log2),[27],4.65
FEISCDVFQSRCKEH [CRNDE],PRISMA enrichment of interactor (log2),[28],5.3
same,PRISMA enrichment of interactor (log2),[29],9.34
same,PRISMA enrichment of interactor (log2),[30],9.08
same,PRISMA enrichment of interactor (log2),[31],4.71
same,PRISMA enrichment of interactor (log2),[32],4.98
same,PRISMA enrichment of interactor (log2),[33],4.88

# Two entries drawn at random from the list so far, as already listed:
binder,measurement,setting,value
DTEQTGHLCNHMEVC [RP11-620J15.3],PRISMA enrichment of interactor (log2),[23],8.47
FEISCDVFQSRCKEH [CRNDE],PRISMA enrichment of interactor (log2),[32],4.98
